Results deposited as PubChem BioAssay AID1259308 (NCATS, 2017)

Aim: 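Genes whose loss raises luciferase production in HEK293 cells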 (primary screen)
Cells: human HEK293 embryonic kidney cells stably expressing firefly luciferase (HEK-CMV-Luc2-Hygro)
Knock-down reagent: single siRNA against human genes, 0.8 pmol siRNA per well
Timing: 72 h
Measured: 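Luciferase light (ONE-Glo) measured on one replicate plate set and viability (CellTiter-Glo) on the other, scaled to a negative control siRNA, with robust z-scores and luciferase per cell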
Reading the numbers: total luciferase, z-score and total luciferase, % of control: higher = more reporter protein produced
Active means: 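An siRNA counts as active if its total luciferase robust z-score exceeds 3; genes with two or more such siRNAs out of three were retested with fresh siRNAs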
Calls: active = raised luciferase; inactive = no rise
The deposit covers about 59,000 reagents; shown is a random part of them. In the full data, about 1,510 (2.6%) got an active call. 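Calls use total luciferase alone and ignore viability, so some active siRNAs may act by altering cell number.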 The numbers tell different reagents against one gene apart. Further read-outs or replicates are left out here. Reagent sequences are not shown.

SF3B4 #1 — total luciferase, z-score = 3.27; total luciferase, % of control = 147; activity call = active
SF3B4 #2 — total luciferase, z-score = -0.124; total luciferase, % of control = 79.4; activity call = inactive
SF3B4 #3 — total luciferase, z-score = 3.38; total luciferase, % of control = 149; activity call = active
BRI3BP #1 — total luciferase, z-score = -0.195; total luciferase, % of control = 78; activity call = inactive
BRI3BP #2 — total luciferase, z-score = 3.03; total luciferase, % of control = 142; activity call = active
BRI3BP #3 — total luciferase, z-score = -0.619; total luciferase, % of control = 69.6; activity call = inactive
C3orf70 #1 — total luciferase, z-score = -0.964; total luciferase, % of control = 62.7; activity call = inactive
C3orf70 #2 — total luciferase, z-score = -0.0332; total luciferase, % of control = 81.2; activity call = inactive
C3orf70 #3 — total luciferase, z-score = -0.116; total luciferase, % of control = 79.6; activity call = inactive
FAM168B #1 — total luciferase, z-score = -0.583; total luciferase, % of control = 70.3; activity call = inactive
FAM168B #2 — total luciferase, z-score = 2.05; total luciferase, % of control = 123; activity call = inactive
FAM168B #3 — total luciferase, z-score = 0.267; total luciferase, % of control = 87.2; activity call = inactive
SAFB2 #1 — total luciferase, z-score = -1.22; total luciferase, % of control = 57.6; activity call = inactive
SAFB2 #2 — total luciferase, z-score = 1.75; total luciferase, % of control = 117; activity call = inactive
SAFB2 #3 — total luciferase, z-score = 1.57; total luciferase, % of control = 113; activity call = inactive

Continued; the last 2 above are carried over.
SAFB2 #2 — total luciferase, z-score = 1.75; total luciferase, % of control = 117; activity call = inactive
SAFB2 #3 — total luciferase, z-score = 1.57; total luciferase, % of control = 113; activity call = inactive
UBOX5 #1 — total luciferase, z-score = -0.245; total luciferase, % of control = 77; activity call = inactive
UBOX5 #2 — total luciferase, z-score = 0.827; total luciferase, % of control = 98.3; activity call = inactive
UBOX5 #3 — total luciferase, z-score = 2.23; total luciferase, % of control = 126; activity call = inactive
HSP90AB1 #1 — total luciferase, z-score = -0.635; total luciferase, % of control = 69.2; activity call = inactive
HSP90AB1 #2 — total luciferase, z-score = -0.268; total luciferase, % of control = 76.5; activity call = inactive
HSP90AB1 #3 — total luciferase, z-score = -0.534; total luciferase, % of control = 71.3; activity call = inactive
KBTBD2 #1 — total luciferase, z-score = 1.32; total luciferase, % of control = 108; activity call = inactive
KBTBD2 #2 — total luciferase, z-score = -0.146; total luciferase, % of control = 79; activity call = inactive
KBTBD2 #3 — total luciferase, z-score = -0.103; total luciferase, % of control = 79.8; activity call = inactive
HAP1 #1 — total luciferase, z-score = -0.0299; total luciferase, % of control = 81.3; activity call = inactive
HAP1 #2 — total luciferase, z-score = 0.208; total luciferase, % of control = 86; activity call = inactive
HAP1 #3 — total luciferase, z-score = -0.148; total luciferase, % of control = 78.9; activity call = inactive
DACH1 #1 — total luciferase, z-score = -0.811; total luciferase, % of control = 65.8; activity call = inactive
DACH1 #2 — total luciferase, z-score = 0.467; total luciferase, % of control = 91.2; activity call = inactive
DACH1 #3 — total luciferase, z-score = 2.68; total luciferase, % of control = 135; activity call = inactive
BPY2 #1 — total luciferase, z-score = -0.22; total luciferase, % of control = 77.5; activity call = inactive
BPY2 #2 — total luciferase, z-score = 1.47; total luciferase, % of control = 111; activity call = inactive
BPY2 #3 — total luciferase, z-score = -0.0026; total luciferase, % of control = 81.8; activity call = inactive
